The record followed here is the supplement of paper PMC9233669.

This sample is rich in variants without activity.

The test system of one data set is biotinyl-Val-oxazolone. Briefly: self-aminoacylation, catalytic enhancement (BVO) (fold over background); higher = more active; k-Seq, kA / k0A0; sequences stand for … in GGGAAUGGAUCCACAUCUACGAAUUC…UUCACUGCAGACUUGACGAAGCUG
The method, boiled down:
(§1)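 Catalytic enhancement equals the median kA over the uncatalyzed rate, the latter read from the low-activity peak of a bimodal Gaussian fit. Values of kA came from fitting each sequence's fraction reacted to a pseudo-first-order model, with 1000 bootstraps. Reacted RNA was captured with streptavidin and quantified by triplicate qPCR and Illumina sequencing after 90 minutes at room temperature with 2–1250 μM biotinyl-aminoacyl-oxazolone and 0.43 μM mutagenized RNA pools bearing a 21-nt variable region.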

The next data set deals with biotinyl-Leu-oxazolone. Description: self-aminoacylation, catalytic enhancement (BLO) (fold over background); higher = more active; k-Seq, kA / k0A0; sequences stand for … in GGGAAUGGAUCCACAUCUACGAAUUC…UUCACUGCAGACUUGACGAAGCUG
An outline of the steps: as §1

A further data set has as its system biotinyl-Ile-oxazolone. Description: self-aminoacylation, catalytic enhancement (BIO) (fold over background); higher = more active; k-Seq, kA / k0A0; sequences stand for … in GGGAAUGGAUCCACAUCUACGAAUUC…UUCACUGCAGACUUGACGAAGCUG
The method, boiled down:
as §1

A further data set deals with biotinyl-Met-oxazolone. Description: self-aminoacylation, catalytic enhancement (BMO) (fold over background); higher = more active; k-Seq, kA / k0A0; sequences stand for … in GGGAAUGGAUCCACAUCUACGAAUUC…UUCACUGCAGACUUGACGAAGCUG
The method, boiled down: as §1

In a further data set the test system is biotinyl-Trp-oxazolone. Description: self-aminoacylation, catalytic enhancement (BWO) (fold over background); higher = more active; k-Seq, kA / k0A0; sequences stand for … in GGGAAUGGAUCCACAUCUACGAAUUC…UUCACUGCAGACUUGACGAAGCUG
An outline of the steps:
as §1

With “AAGUUUACUAAUAGUUGCAAG [Fam3.1 aminoacylation ribozyme variant]”, the self-aminoacylation is 1.29 with biotinyl-Val-oxazolone; 1.65 in the data set with biotinyl-Leu-oxazolone; 1.38 in the data set with biotinyl-Ile-oxazolone; 1.26 in the data set on biotinyl-Met-oxazolone; 1.9 in the data set with biotinyl-Trp-oxazolone.
As for “AUUCACCUAGGUCAUCCGGUC [Fam2.2 aminoacylation ribozyme variant]”, the self-aminoacylation with biotinyl-Val-oxazolone turned out to be 1.35; in the data set with biotinyl-Leu-oxazolone, 1.71; with biotinyl-Ile-oxazolone it was 1.25; with biotinyl-Met-oxazolone, 1.33; in the data set on biotinyl-Trp-oxazolone, 1.28.
As to “AUUCACCUCGGUCAACGGGUG [Fam2.2 aminoacylation ribozyme variant]”, the self-aminoacylation came to 2.82 in the data set with biotinyl-Val-oxazolone; 5.39 in the data set on biotinyl-Leu-oxazolone; 2.44 with biotinyl-Ile-oxazolone; 3.98 in the data set with biotinyl-Met-oxazolone; 3.36 in the data set with biotinyl-Trp-oxazolone.
Consider “AAGUUUGCUAAUAGCCGCAAU [Fam3.1 aminoacylation ribozyme variant]”, for which the self-aminoacylation with biotinyl-Val-oxazolone came out at 1.41; in the data set on biotinyl-Leu-oxazolone it was 1.92; in the data set on biotinyl-Ile-oxazolone, 1.32; with biotinyl-Met-oxazolone, 1.45; in the data set on biotinyl-Trp-oxazolone, 1.69.
For the sequence “AAGUUUCCUAAUAGUUGCAAG [Fam3.1 aminoacylation ribozyme variant]”, the self-aminoacylation with biotinyl-Val-oxazolone came out at 1.4; in the data set on biotinyl-Leu-oxazolone, 1.43; in the data set with biotinyl-Ile-oxazolone, 1.66; in the data set on biotinyl-Met-oxazolone, 1.58; in the data set on biotinyl-Trp-oxazolone it was 1.35.
The matching figures for “CUACUACAAACAAUAGGUCUG [Fam1A.1 aminoacylation ribozyme variant]”: 0.94, 0.718, 0.826, 0.635 and 0.456.
In the case of “AUAACCCUGGUCGUCGAGUGA [Fam2.1 aminoacylation ribozyme variant]”, the self-aminoacylation in the data set on biotinyl-Val-oxazolone worked out at 0.939; in the data set on biotinyl-Leu-oxazolone it was 1.3; with biotinyl-Ile-oxazolone, 1.01; in the data set with biotinyl-Met-oxazolone, 1.01; in the data set on biotinyl-Trp-oxazolone, 1.28.
As to “AAGUUCGCUAAUAGUCGAAAG [Fam3.1 aminoacylation ribozyme variant]”, the self-aminoacylation in the data set with biotinyl-Val-oxazolone was 1.28; in the data set on biotinyl-Leu-oxazolone, 1.3; in the data set on biotinyl-Ile-oxazolone it was 1.49; with biotinyl-Met-oxazolone it was 1.28; in the data set with biotinyl-Trp-oxazolone it was 1.98.
For “AUUCACCUAGGUCGUCGGGUU [Fam2.2 aminoacylation ribozyme variant]”, the self-aminoacylation in the data set with biotinyl-Val-oxazolone amounted to 1.71; in the data set with biotinyl-Leu-oxazolone it was 1.69; in the data set with biotinyl-Ile-oxazolone, 1.57; with biotinyl-Met-oxazolone, 1.53; in the data set with biotinyl-Trp-oxazolone it was 1.31.
In the case of “CUACUUCAACCAUUCGGUCUG [Fam1A.1 aminoacylation ribozyme variant]”, the self-aminoacylation with biotinyl-Val-oxazolone worked out at 1.26; with biotinyl-Leu-oxazolone, 1.19; in the data set on biotinyl-Ile-oxazolone, 1.21; in the data set with biotinyl-Met-oxazolone, 1.17; with biotinyl-Trp-oxazolone it was 1.52.
For the sequence “AUGACCCUGGUCAUCGAGGGA [Fam2.1 aminoacylation ribozyme variant]”, the self-aminoacylation with biotinyl-Val-oxazolone stood at 1.66; in the data set on biotinyl-Ile-oxazolone, 1.92; in the data set with biotinyl-Trp-oxazolone it was 1.82.
Consider “CGACACUUCAGGCAAUCGGUC [Fam1B.1 aminoacylation ribozyme variant]”, for which the self-aminoacylation with biotinyl-Val-oxazolone came to 1.62; in the data set with biotinyl-Leu-oxazolone, 1.59; in the data set with biotinyl-Ile-oxazolone, 1.36; in the data set on biotinyl-Met-oxazolone, 1.18; in the data set with biotinyl-Trp-oxazolone, 1.71.
Consider “AUUCACCUAGCUGAUCGGGUG [Fam2.2 aminoacylation ribozyme variant]”, for which the figures for the self-aminoacylation with biotinyl-Met-oxazolone and in the data set with biotinyl-Trp-oxazolone were 1.91 and 1.97, respectively.
In the case of “AUUCUCCUAGGUCAUCGGCUG [Fam2.2 aminoacylation ribozyme variant]”, the self-aminoacylation in the data set with biotinyl-Trp-oxazolone was 1.72.
Regarding “AAGUUAGCUAAUAGGCGCAAG [Fam3.1 aminoacylation ribozyme variant]”, the self-aminoacylation with biotinyl-Val-oxazolone came to 0.983; in the data set with biotinyl-Leu-oxazolone, 1.13; in the data set on biotinyl-Ile-oxazolone, 1.14; with biotinyl-Met-oxazolone, 1.38.
“CCACACAUCAAGCAAUGGGUC [Fam1B.1 aminoacylation ribozyme variant]”: the self-aminoacylation stood at 1.08 in the data set on biotinyl-Val-oxazolone, 0.806 in the data set on biotinyl-Leu-oxazolone, 1.08 in the data set on biotinyl-Ile-oxazolone and 0.97 in the data set with biotinyl-Met-oxazolone.
On to “AUACAUCAAACAAUCGGUCUG [Fam1A.1 aminoacylation ribozyme variant]”, for which the self-aminoacylation came to 0.835 in the data set with biotinyl-Val-oxazolone, 0.975 in the data set with biotinyl-Leu-oxazolone, 0.901 in the data set with biotinyl-Ile-oxazolone and 0.981 in the data set on biotinyl-Met-oxazolone.
As to “CCACACUUCGAGCAAUCGGGC [Fam1B.1 aminoacylation ribozyme variant]”, the self-aminoacylation in the data set on biotinyl-Val-oxazolone turned out to be 1.99; in the data set on biotinyl-Ile-oxazolone, 1.66; in the data set on biotinyl-Met-oxazolone, 1.84; in the data set on biotinyl-Trp-oxazolone, 1.62.
Take “CCAUACUUCAAGCAAUCGGUA [Fam1B.1 aminoacylation ribozyme variant]”: the self-aminoacylation with biotinyl-Val-oxazolone is 1.26; in the data set on biotinyl-Leu-oxazolone it was 1.1; in the data set on biotinyl-Ile-oxazolone, 1.33; in the data set with biotinyl-Met-oxazolone, 1.22.
Take “CUCCUUCAAACAAUCGGUCCG [Fam1A.1 aminoacylation ribozyme variant]”: the self-aminoacylation with biotinyl-Val-oxazolone worked out at 0.846; with biotinyl-Leu-oxazolone, 1.38; with biotinyl-Ile-oxazolone it was 0.861; in the data set with biotinyl-Met-oxazolone it was 0.945.
The matching figures for “CUACUUCAAACCAUCGGUGUG [Fam1A.1 aminoacylation ribozyme variant]”: 1.1, 1.52, 1.08 and 1.11.
For the sequence “CUACUUCAACCAAUCGGUCUA [Fam1A.1 aminoacylation ribozyme variant]”, the self-aminoacylation in the data set with biotinyl-Val-oxazolone was 0.994; in the data set with biotinyl-Leu-oxazolone, 0.86; in the data set on biotinyl-Ile-oxazolone it was 1.02; in the data set with biotinyl-Met-oxazolone, 0.853.
Regarding “CCACAACUCAAGCAAUCGGUC [Fam1B.1 aminoacylation ribozyme variant]”, the self-aminoacylation in the data set with biotinyl-Leu-oxazolone is 1.61; in the data set with biotinyl-Ile-oxazolone it was 1.81; in the data set on biotinyl-Met-oxazolone, 1.48; in the data set with biotinyl-Trp-oxazolone it was 1.97.
On to “CUACACUUCAAGAAAUCGGUC [Fam1B.1 aminoacylation ribozyme variant]”, for which the self-aminoacylation with biotinyl-Val-oxazolone was 0.725; with biotinyl-Leu-oxazolone, 0.798; in the data set on biotinyl-Ile-oxazolone it was 0.622; in the data set on biotinyl-Met-oxazolone, 0.702.
“CCACACCUCAAUCAAUCGGUC [Fam1B.1 aminoacylation ribozyme variant]”: the self-aminoacylation in the data set on biotinyl-Val-oxazolone amounted to 1.14; with biotinyl-Leu-oxazolone it was 0.969; in the data set with biotinyl-Ile-oxazolone it was 1.03; in the data set on biotinyl-Met-oxazolone, 0.829.
On to “AUUACCCUGGUCAACGAGUAA [Fam2.1 aminoacylation ribozyme variant]”, for which the self-aminoacylation turned out to be 1.44 with biotinyl-Val-oxazolone, 1.53 in the data set with biotinyl-Leu-oxazolone, 1.29 in the data set with biotinyl-Ile-oxazolone and 1.19 in the data set with biotinyl-Met-oxazolone.
“CUACUUCAAAUAAUCGGUCUG [Fam1A.1 aminoacylation ribozyme variant]”: the self-aminoacylation in the data set with biotinyl-Val-oxazolone came to 0.864; in the data set on biotinyl-Leu-oxazolone it was 1.05; in the data set with biotinyl-Ile-oxazolone, 0.898; in the data set on biotinyl-Met-oxazolone, 0.836.
As to “AUUCAGCUAGGUCAUCGGGUC [Fam2.2 aminoacylation ribozyme variant]”, the self-aminoacylation in the data set on biotinyl-Val-oxazolone amounted to 1.94; in the data set with biotinyl-Leu-oxazolone it was 1.92; in the data set on biotinyl-Ile-oxazolone, 1.89; in the data set on biotinyl-Met-oxazolone it was 1.87.
On to “UCACUUCAAACAAUCGGUCUG [Fam1A.1 aminoacylation ribozyme variant]”, for which the self-aminoacylation in the data set with biotinyl-Val-oxazolone stood at 1.36; in the data set with biotinyl-Leu-oxazolone, 2.11; in the data set on biotinyl-Ile-oxazolone it was 1.4; in the data set on biotinyl-Met-oxazolone, 1.52.
